{"sequences": {"note": "The chains behind the UniProt entries cited, without tags or fusion partners. Residues count along the entry.", "UniProt Q8K2B3, 43-664": "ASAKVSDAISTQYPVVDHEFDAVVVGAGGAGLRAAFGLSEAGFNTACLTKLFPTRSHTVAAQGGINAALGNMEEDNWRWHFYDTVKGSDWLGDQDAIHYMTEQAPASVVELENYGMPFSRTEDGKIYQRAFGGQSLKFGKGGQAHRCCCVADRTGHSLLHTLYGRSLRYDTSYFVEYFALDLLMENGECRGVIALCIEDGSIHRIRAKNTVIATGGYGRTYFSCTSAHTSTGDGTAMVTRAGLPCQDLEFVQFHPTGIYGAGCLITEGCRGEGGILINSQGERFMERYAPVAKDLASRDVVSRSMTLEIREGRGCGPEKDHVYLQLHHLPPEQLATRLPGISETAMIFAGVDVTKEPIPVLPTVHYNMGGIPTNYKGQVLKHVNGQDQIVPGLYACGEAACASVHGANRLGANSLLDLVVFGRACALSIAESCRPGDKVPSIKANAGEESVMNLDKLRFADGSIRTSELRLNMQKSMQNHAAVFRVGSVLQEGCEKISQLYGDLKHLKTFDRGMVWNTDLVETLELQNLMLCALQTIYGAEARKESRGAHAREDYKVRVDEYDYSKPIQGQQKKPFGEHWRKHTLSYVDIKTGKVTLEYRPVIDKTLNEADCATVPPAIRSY", "UniProt Q9CQA3, 31-282": "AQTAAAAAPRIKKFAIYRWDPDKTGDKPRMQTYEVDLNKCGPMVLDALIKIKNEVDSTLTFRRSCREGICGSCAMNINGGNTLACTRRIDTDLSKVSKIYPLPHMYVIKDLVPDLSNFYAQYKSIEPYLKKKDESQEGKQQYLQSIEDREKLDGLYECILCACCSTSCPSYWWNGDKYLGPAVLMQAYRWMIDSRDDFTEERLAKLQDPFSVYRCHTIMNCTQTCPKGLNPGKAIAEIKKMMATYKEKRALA", "UniProt Q9CXV1, 57-159": "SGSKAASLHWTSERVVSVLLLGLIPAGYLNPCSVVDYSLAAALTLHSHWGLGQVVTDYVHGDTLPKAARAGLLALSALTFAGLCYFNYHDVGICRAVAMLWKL", "UniProt Q9CZB0, 30-169": "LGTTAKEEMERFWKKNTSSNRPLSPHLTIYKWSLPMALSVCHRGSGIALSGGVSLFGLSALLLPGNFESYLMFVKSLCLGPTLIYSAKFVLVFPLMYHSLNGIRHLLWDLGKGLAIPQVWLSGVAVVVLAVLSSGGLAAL"}, "source": "patent US9801922B2", "about": "“Compositions and methods of treating cancer” (UNIVERSITY OF IOWA RESEARCH FOUNDATION, priority 2011, dated 2017)", "key": {"[1]": {"system": "Human thioredoxin-1 (hTrx-1)", "assay": "Thioredoxin native redox western blot", "type": "cell-based", "conditions": "SUM159", "procedure": "FIG. 7: Human thioredoxin-1 (hTrx-1) native redox western blot analysis of BSO, DTPP and AUR treated SUM159. Asynchronously growing cultures of SUM159 were plated and treated as described in FIG. 1. Cells were harvested and scraped in PBS at 4° C. Whole cell homogenates were used for native gel redox western blot analysis of […].\nThioredoxin Redox Western: The human thioredoxin-1 protein level was determined by Thioredoxin redox western. Approximately 2-3 million treated or untreated SUM159 cells were lysed in G-lysis buffer (50 mM Tris-HCl, pH 8.3, 3 mM EDTA, 6 M guanidine-HCl, 0.5% Triton X-100) containing 50 mM iodoacetic acid (pH 8.3). The lysate was incubated in the dark for thirty minutes. The lysates were then centrifuged in G-25 microspin columns (GE Healthcare). Protein was then quantified, from the eluent by performing a Bradford protein assay, as previously described (Bradford, M. M. A rapid and sensitive method for the quantitation of microgram quantities of protein utilizing the principle of protein-dye binding. Anal Biochem 72:248-254; 1976). Equal amounts of protein were then added to a 15% acrylamide native gel. The gel was then run at 100 V for approximately 1.5 h. The proteins contained in the gel were then transferred to a nitrocellulose membrane (BIORAD Labs), using a semi-dry transfer protocol. […]"}, "SUM159 cells [2]": {"system": "SUM159 cells", "assay": "Glutathione analysis (total GSH, GSSG)", "type": "cell-based, human", "conditions": "24 hours", "procedure": "FIG. 18: Intracellular GSH&GSSG measured in BSO, DTPP, and AUR exposed SUM159 cells. Asynchronously growing cultures of SUM159 were plated and treated as described in FIG. 1. Cells were harvested and scraped in PBS at 4° C. Whole cell homogenates were used for biochemical analysis of total GSH & GSSG levels. Errors represent Mean ±1 SD of 4 samples from two separate experiments (n=4).\nGlutathione analysis: SUM159 Cells were plated and treated with BSO, DTPP and AUR as described above. When cells were grown to 70-80% confluency on 100 mm dishes and scraped in PBS at 4° C., centrifuged, and the cell pellets were frozen at −20° C. until analysis. Samples were thawed and whole homogenates were prepared as described and total glutathione (GSH+GSSG) was determined using a recycling method (Spitz, D. R.; Malcolm, R. R.; Roberts, R. J. Cytotoxicity and metabolism of 4-hydroxy-2-nonenal and 2-nonenal in H2O2-resistant cell lines. Do aldehydic by-products of lipid peroxidation contribute to oxidative stress? Biochem J 267:453-459; 1990; Griffith, O. W. Determination of glutathione and glutathione disulfide using glutathione reductase and 2-vinylpyridine. Anal Biochem 106:207-212; 1980). All biochemical determinations were normalized to the protein content using the method of bicinchoninic acid protein assay."}, "[3]": {"system": "electron transport chain complex III", "assay": "Spectrophotometric ETC complex III activity assay", "type": "biochemical, mice", "conditions": "isolated liver mitochondria; about 10 uM DTPP"}, "[4]": {"molecular_target": "T1, electron transport chain complex II (Mus musculus, UniProt Q8K2B3+Q9CQA3+Q9CXV1+Q9CZB0)", "T1 construct": "Spectrophotometric assays were performed on isolated mitochondria to evaluate how DTPP affects the activity of each ETC complex; from tissue; host or cells: mouse liver mitochondria", "assay": "Spectrophotometric ETC complex II activity assay", "type": "biochemical, mice", "conditions": "isolated liver mitochondria; about 10 uM DTPP"}, "SUM159 cells [5]": {"system": "SUM159 cells", "assay": "DHE oxidation (intracellular superoxide)", "type": "cell-based, human", "procedure": "FIG. 10: DHE oxidation of BSO,DTPP and AUR exposed SUM159 cells. Asynchronously growing cultures of SUM159 were plated and treated as described in FIG. 1. Monolayer cultures were harvested and trypsinized, washed once with PBS and labeled 40 minutes with 5 μM DHE (in 0.1% DMSO) in PBS containing 5 mM pyruvate at 37° C. Each sample was then analyzed for the Mean fluorescence Intensity (MFI) of 10,000 cells by flow cytometry. Samples were assayed in triplicate; mean±1 SD of 2 experiment containing treatment dishes per group (n=6). *p<0.001 as compared to Control.\nEstimation of intracellular superoxide levels using Dihydroethidium (DHE) oxidation: Steady-state levels of superoxide were estimated using the fluorescent dyes, dihydroethidium (DHE) purchased from Molecular Probes (Eugene, Oreg.). Cells were plated and treated for as described earlier. On day 6, the cells were trypsinized and washed with 5 mM/L pyruvate containing PBS once then labeled with DHE ([…], in 0.1% DMSO, 40 min) at 37° C. After labeling, cells were kept on ice. Samples were analyzed using a FACScan flowcytometer (Becton Dickinson Immunocytometry System, INC., Mountain View, Calif.) (excitation 488 nm, emission 585 nm band-pass filter). The mean fluorescence intensity (MFI) of 10,000 cells was analyzed in each sample and corrected for autofluorescence from unlabeled cells. The MFI data was normalized to control levels."}, "[6]": {"system": "electron transport chain complex I", "assay": "Spectrophotometric ETC complex I activity assay", "type": "biochemical, mice", "conditions": "isolated liver mitochondria; about 10 uM DTPP"}}, "note": "Entries after “also recorded” stand apart in the source; their conditions may differ. For at least one compound, name, drawing or mass did not settle the structure."}
{"smiles": "CCCCCCCCCC[P+](c1ccccc1)(c1ccccc1)c1ccccc1", "note": "[DTPP, Decyl-Triphenylphosphonium]", "values": [{"measurement": "ratio of oxidized thioredoxin to total thioredoxin, in words", "setting": "[1]", "result": "only showed a modest increase"}, {"measurement": "total GSH, in words", "setting": "SUM159 cells [2]", "result": "only modestly decreased the total GSH level; also recorded: did not change the total glutathione level"}, {"measurement": "effect on complex III activity, in words", "setting": "[3]", "result": "significantly reduced the activity"}, {"measurement": "effect on complex II activity, in words", "setting": "[4]", "result": "negligible affects"}, {"measurement": "DHE oxidation, in words", "setting": "SUM159 cells [5]", "result": "only modest increases in DHE oxidation"}, {"measurement": "effect on complex I activity, in words", "setting": "[6]", "result": "significantly reduced the activity"}]}
